# Data as given in PubChem BioAssay AID1259308 (NCATS, 2017)
# Test: 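Knock-downs that increase output of a recombinant reporter protein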 (primary screen)
# Cell system: human HEK293 embryonic kidney cells stably expressing firefly luciferase (HEK-CMV-Luc2-Hygro)
# Knock-down reagent: single siRNA against human genes, 0.8 pmol siRNA per well
# Duration: 72 h
# Measured: 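Reporter luminescence and viable-cell signal on separate replicate plates, given as percent of non-targeting control and median/MAD z-scores, plus per-cell luciferase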
# Reading the numbers: total luciferase, z-score and total luciferase, % of control: higher = more reporter protein produced; luciferase per cell, z-score: higher = more reporter output per viable cell; viable cells, % of control: higher = more viable cells
# Active means: 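An siRNA counts as active if its total luciferase robust z-score exceeds 3; genes with two or more such siRNAs out of three were retested with fresh siRNAs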
# Calls: active = raised luciferase; inactive = no rise
# In all, the deposit lists about 59,000 reagents; shown is an unselected part. In the full data, about 1,510 (2.6%) are marked active. 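Calls use total luciferase alone and ignore viability, so some active siRNAs may act by altering cell number.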 The numbers tell different reagents against one gene apart.
Gene,reagent,"total luciferase, z-score","total luciferase, % of control","luciferase per cell, z-score","viable cells, % of control",Call
NPHP4 (nephrocystin 4),1,0.873,99.2,0.939,86.6,inactive
NPHP4 (nephrocystin 4),2,-1.31,55.9,-0.698,75.1,inactive
NPHP4 (nephrocystin 4),3,0.567,93.2,0.117,101,inactive
WFDC12 (WAP four-disulfide core domain 12),1,-1.52,51.6,-1.57,87.3,inactive
WFDC12 (WAP four-disulfide core domain 12),2,-0.836,65.3,-0.563,84.6,inactive
WFDC12 (WAP four-disulfide core domain 12),3,-0.493,72.1,-1.06,107,inactive
NUTM1 (NUT midline carcinoma family member 1),1,0.894,99.7,0.558,96.2,inactive
NUTM1 (NUT midline carcinoma family member 1),2,-0.251,76.9,-0.361,94.5,inactive
NUTM1 (NUT midline carcinoma family member 1),3,2.59,133,4.17,49.7,inactive
CCDC154 (coiled-coil domain containing 154),1,0.135,84.6,0.677,79.1,inactive
CCDC154 (coiled-coil domain containing 154),2,-0.607,69.8,-0.38,86.2,inactive
CCDC154 (coiled-coil domain containing 154),3,1.69,115,1.2,93.9,inactive
LOC730098,1,-1.95,43.1,-2.78,100,inactive
LOC730098,2,0.456,91,0.242,95.4,inactive
LOC730098,3,-1.05,61,-1.7,107,inactive
ACAT2 (acetyl-CoA acetyltransferase 2),1,-0.188,78.1,-0.993,113,inactive
ACAT2 (acetyl-CoA acetyltransferase 2),2,-0.067,80.6,-0.601,105,inactive
ACAT2 (acetyl-CoA acetyltransferase 2),3,-0.885,64.3,-0.852,89.9,inactive
CCR6 (C-C motif chemokine receptor 6),1,0.0438,82.8,0.553,79.9,inactive
CCR6 (C-C motif chemokine receptor 6),2,1.25,107,1.97,71,inactive
CCR6 (C-C motif chemokine receptor 6),3,0.801,97.8,0.157,105,inactive
TUBA3C (tubulin alpha 3c),1,-0.13,79.3,-0.198,93.4,inactive
TUBA3C (tubulin alpha 3c),2,-0.875,64.5,-0.725,87.2,inactive
TUBA3C (tubulin alpha 3c),3,-0.103,79.8,2.32,48.5,inactive
SLC16A6,1,0.57,93.2,0.253,97.5,inactive
SLC16A6,2,0.35,88.8,-0.218,105,inactive
SLC16A6,3,1.66,115,0.815,104,inactive
PKP3 (plakophilin 3),1,-1.02,61.6,-0.338,75.2,inactive
PKP3 (plakophilin 3),2,0.507,92,-0.00459,103,inactive
PKP3 (plakophilin 3),3,-0.262,76.7,-0.456,96.6,inactive
GADD45B (growth arrest and DNA damage inducible beta),1,-0.736,67.2,-1.35,107,inactive
GADD45B (growth arrest and DNA damage inducible beta),2,-0.694,68.1,-1.42,111,inactive
GADD45B (growth arrest and DNA damage inducible beta),3,-0.74,67.2,-0.802,92.7,inactive
PTPRA (protein tyrosine phosphatase receptor type A),1,-0.0288,81.3,0.434,81.1,inactive
PTPRA (protein tyrosine phosphatase receptor type A),2,-0.369,74.5,-0.662,99.2,inactive
PTPRA (protein tyrosine phosphatase receptor type A),3,1.24,107,0.864,94.9,inactive
UNC93A (unc-93 homolog A),1,1.64,115,0.714,106,inactive
UNC93A (unc-93 homolog A),2,1.04,103,0.452,102,inactive
UNC93A (unc-93 homolog A),3,0.158,85,-0.254,102,inactive
RPAP3 (RNA polymerase II associated protein 3),1,-0.202,77.9,-0.672,104,inactive
RPAP3 (RNA polymerase II associated protein 3),2,0.593,93.7,-0.128,108,inactive
RPAP3 (RNA polymerase II associated protein 3),3,1.21,106,0.796,95.9,inactive
TMEM257 (retired record),1,0.675,95.3,0.291,98.6,inactive
TMEM257 (retired record),2,1.86,119,1.95,79.5,inactive
TMEM257 (retired record),3,1.33,108,1.43,83.1,inactive
PEMT (phosphatidylethanolamine N-methyltransferase),1,-0.994,62.1,-1.82,112,inactive
PEMT (phosphatidylethanolamine N-methyltransferase),2,-0.654,68.9,0.114,74.7,inactive
PEMT (phosphatidylethanolamine N-methyltransferase),3,-1.32,55.6,0.15,59.7,inactive
ADAMTS3 (ADAM metallopeptidase with thrombospondin type 1 motif 3),1,-1.34,55.2,-0.943,79.1,inactive
ADAMTS3 (ADAM metallopeptidase with thrombospondin type 1 motif 3),2,-0.243,77.1,-0.144,89.4,inactive
ADAMTS3 (ADAM metallopeptidase with thrombospondin type 1 motif 3),3,0.686,95.5,1.3,75.9,inactive
ZNF724 (zinc finger protein 724),1,-0.79,66.2,-1,96.3,inactive
ZNF724 (zinc finger protein 724),2,-0.205,77.8,0.478,76.7,inactive
ZNF724 (zinc finger protein 724),3,-0.46,72.7,-0.583,94.8,inactive
EED (embryonic ectoderm development),1,-0.743,67.1,-0.829,93.3,inactive
EED (embryonic ectoderm development),2,0.0375,82.6,0.131,89.2,inactive
EED (embryonic ectoderm development),3,0.639,94.6,0.856,84.4,inactive
NDUFS8 (NADH:ubiquinone oxidoreductase core subunit S8),1,-0.367,74.6,-0.634,98.5,inactive
NDUFS8 (NADH:ubiquinone oxidoreductase core subunit S8),2,-0.749,67,-0.633,88.4,inactive
NDUFS8 (NADH:ubiquinone oxidoreductase core subunit S8),3,-0.981,62.4,0.38,63.1,inactive
APOBEC1 (apolipoprotein B mRNA editing enzyme catalytic subunit 1),1,0.0473,82.8,-0.298,100,inactive
APOBEC1 (apolipoprotein B mRNA editing enzyme catalytic subunit 1),2,-0.682,68.3,-0.0612,77.6,inactive
APOBEC1 (apolipoprotein B mRNA editing enzyme catalytic subunit 1),3,0.298,87.8,-0.205,104,inactive
CCNG2 (cyclin G2),1,-0.362,74.7,-0.612,98,inactive
CCNG2 (cyclin G2),2,0.408,90,0.434,89.7,inactive
CCNG2 (cyclin G2),3,-2.09,40.4,-1.85,73.4,inactive
CTSF (cathepsin F),1,-0.494,72.1,-0.832,100,inactive
CTSF (cathepsin F),2,-0.971,62.6,-1.07,92.7,inactive
CTSF (cathepsin F),3,2.58,133,1.63,96.9,inactive
YWHAEP5,1,1.51,112,1.21,90.9,inactive
YWHAEP5,2,0.11,84.1,0.453,83.4,inactive
YWHAEP5,3,-1.95,43.1,-1.64,74.3,inactive
SMCO1 (single-pass membrane protein with coiled-coil domains 1),1,0.928,100,0.91,88.2,inactive
SMCO1 (single-pass membrane protein with coiled-coil domains 1),2,-0.0502,80.9,-0.425,101,inactive
SMCO1 (single-pass membrane protein with coiled-coil domains 1),3,0.873,99.2,1.01,85.1,inactive

Reprinted from the listing, 11 entries:
Gene,reagent,"total luciferase, z-score","total luciferase, % of control","luciferase per cell, z-score","viable cells, % of control",Call
NUTM1 (NUT midline carcinoma family member 1),3,2.59,133,4.17,49.7,inactive
CCDC154 (coiled-coil domain containing 154),1,0.135,84.6,0.677,79.1,inactive
CCDC154 (coiled-coil domain containing 154),2,-0.607,69.8,-0.38,86.2,inactive
CCDC154 (coiled-coil domain containing 154),3,1.69,115,1.2,93.9,inactive
LOC730098,1,-1.95,43.1,-2.78,100,inactive
LOC730098,2,0.456,91,0.242,95.4,inactive
LOC730098,3,-1.05,61,-1.7,107,inactive
ACAT2 (acetyl-CoA acetyltransferase 2),1,-0.188,78.1,-0.993,113,inactive
ACAT2 (acetyl-CoA acetyltransferase 2),2,-0.067,80.6,-0.601,105,inactive
ACAT2 (acetyl-CoA acetyltransferase 2),3,-0.885,64.3,-0.852,89.9,inactive
CCR6 (C-C motif chemokine receptor 6),1,0.0438,82.8,0.553,79.9,inactive
